No constants are given. Whether binding was seen depends on the method and setting. Some binding calls cover weakened binding; strength is not graded here. Sequences can lack the tags named with a protein.
Experiments:
[1] = biological target: Wild type bovine SF1 (steroidogenic factor 1), from pSG5 vector (bovine) (UniProt Q04752); experiment: GST pull-down of in vitro translated 35S-SF1 (FIGS. 3A-B, lane 4)
[2] = biological target: Wild type bovine SF1 (steroidogenic factor 1), from pSG5 vector (bovine) (UniProt Q04752); experiment: GST pull-down of in vitro translated 35S-SF1, SDS-PAGE and autoradiography
[3] = biological target: Gal4DBD fusion of ERα ligand-binding domain, amino acids 274 to 595 (pGBT9-ER274-595) (UniProt P04386); experiment: yeast two-hybrid, β-galactosidase activity, with ligand
[4] = biological target: T1, Gal4DBD-SF1 fusion protein (bovine steroidogenic factor 1, pGBT9-SF1) (bovine) (UniProt P04386+Q04752); experiment: yeast two-hybrid, β-galactosidase activity
[5] = biological target: Gal4DBD-ERRα1 fusion protein (estrogen related receptor α-1, pGBT9-ERRα-1) (UniProt P04386); experiment: yeast two-hybrid, β-galactosidase activity
[6] = biological target: T1, Gal4DBD-SF1 fusion protein (bovine steroidogenic factor 1, pGBT9-SF1) (bovine); experiment: yeast two-hybrid, β-galactosidase activity (FIG. 5B)

Chains of the proteins cited; added tags and fusions are not shown. Lines headed by an entry give the natural chain unless they say otherwise; changes in a name come on top.
UniProt Q04752: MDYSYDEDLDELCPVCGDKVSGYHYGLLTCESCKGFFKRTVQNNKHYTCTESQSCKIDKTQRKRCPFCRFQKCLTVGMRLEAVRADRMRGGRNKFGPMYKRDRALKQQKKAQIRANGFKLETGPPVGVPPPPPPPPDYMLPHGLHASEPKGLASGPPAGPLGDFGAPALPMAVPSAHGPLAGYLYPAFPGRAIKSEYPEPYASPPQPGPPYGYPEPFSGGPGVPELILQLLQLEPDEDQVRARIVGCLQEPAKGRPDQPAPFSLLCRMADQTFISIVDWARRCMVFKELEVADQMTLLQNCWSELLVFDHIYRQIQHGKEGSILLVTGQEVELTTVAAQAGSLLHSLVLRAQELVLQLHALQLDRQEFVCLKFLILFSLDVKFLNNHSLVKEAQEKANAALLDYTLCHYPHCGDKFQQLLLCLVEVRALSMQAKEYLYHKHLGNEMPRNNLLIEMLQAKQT
UniProt P04386: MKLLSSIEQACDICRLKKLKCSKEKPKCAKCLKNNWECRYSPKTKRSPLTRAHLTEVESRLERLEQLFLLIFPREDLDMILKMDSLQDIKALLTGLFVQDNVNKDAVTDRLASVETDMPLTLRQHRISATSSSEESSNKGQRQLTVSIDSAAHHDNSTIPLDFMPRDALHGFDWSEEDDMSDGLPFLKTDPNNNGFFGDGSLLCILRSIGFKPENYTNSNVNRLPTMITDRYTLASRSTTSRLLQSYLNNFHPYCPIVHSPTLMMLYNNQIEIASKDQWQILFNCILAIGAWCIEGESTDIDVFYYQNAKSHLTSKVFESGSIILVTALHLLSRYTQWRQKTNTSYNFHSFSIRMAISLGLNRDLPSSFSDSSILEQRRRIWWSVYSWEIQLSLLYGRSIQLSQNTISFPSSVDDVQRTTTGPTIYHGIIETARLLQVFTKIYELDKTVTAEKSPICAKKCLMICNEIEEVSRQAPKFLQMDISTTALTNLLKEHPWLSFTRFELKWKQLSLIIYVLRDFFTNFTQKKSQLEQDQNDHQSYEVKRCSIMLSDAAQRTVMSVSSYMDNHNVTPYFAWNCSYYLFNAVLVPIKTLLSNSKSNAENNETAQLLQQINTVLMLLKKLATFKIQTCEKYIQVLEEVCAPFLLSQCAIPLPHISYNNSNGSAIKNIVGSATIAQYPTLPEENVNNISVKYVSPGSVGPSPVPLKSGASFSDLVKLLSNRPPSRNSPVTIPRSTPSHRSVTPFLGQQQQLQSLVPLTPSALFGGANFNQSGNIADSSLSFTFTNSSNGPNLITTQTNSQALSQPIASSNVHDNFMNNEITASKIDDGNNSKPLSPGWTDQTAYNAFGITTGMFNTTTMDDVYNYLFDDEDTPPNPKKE

Measured: binding

NYAGAKFSDPPSPSVLPKPPSHW (peptide, not shown: a dimerising Fc or GST) [GST-PNRC278-300]
binds: [1] | [2]

NYAGAKFSDPPSPSVLPKPPSHW (peptide, not shown: large carriers) [Gal4AD-PNRC278-300 fusion protein]
binds: [3] | [4] | [5] | [6]

From US6972178
